# Laboratory results from PubChem BioAssay AID1458 (National Center for Advancing Translational Sciences (NCATS), 2008).
# The campaign covered roughly 210,000 compounds. About 5,900 (2.8%) were called active. Another 5% or so got no clear call; they are omitted. Calls come from the whole dose curve; as a rule, active = well fitted activation curve with a large enough effect; inconclusive = small, poorly fitted or top-dose-only effect; inactive = no such curve, though single readings can be large or run the other way. Only a part is listed here, and it is no random draw. The source gives no active or inactive call for entries shown without one.
# Test: qHTS Assay for Enhancers of SMN2 Splice Variant Expression; note: nearly all actives have a fitted effect of over 55% in size; for activity change, positive = activation: % of control where 0% means no effect
# Settings: HEK293 SMN2-luciferase splicing reporter, luminescence, 30-36 h; activity change, positive = activation: at 46.1 µM (top of the series) unless noted
# How it was run: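 HEK293 cells carry an SMN2 […]–luciferase reporter in which exon 7 inclusion puts luciferase in frame. Cells were plated 10-12 h before compound addition, then incubated 30-36 h at 37C. ONE-Glo luminescence was read; sodium butyrate at 4.5 mM final served as control.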
# Potency is the fitted concentration of half-maximal effect.
SMILES,Potency,"activity change, positive = activation"
CC(C)c1cc(C(=O)N/N=C/c2ccco2)n[nH]1,active: 15.8 µM,–
O=C(CSCc1ccc(Cl)cc1)N1CCN(Cc2ccc3c(c2)OCO3)CC1,–,inactive: -32.9%
CCCCSc1nnc2c(n1)[nH]c1ccccc12,active: 3.55 µM,–
CCc1ccc2[nH]c(=O)c(CN(Cc3ccc(F)cc3)C(c3nnnn3CCN3CCOCC3)C(C)C)cc2c1 (stereo unspecified),–,57.5%
N#Cc1c(N)nc2c(c1N)CC(COc1ccccc1)O2 (stereo unspecified),–,34.2%
Cc1cccc(NC(=O)c2n[nH]c([N+](=O)[O-])c2Br)c1C,active: 10 µM,–
Cc1ccc(NC(=O)CSc2nc3nc(C)cc(C)c3c(=O)[nH]2)cc1,–,50.5%
Cc1cccc(NS(=O)(=O)c2cc(C(=O)NCCC3=CCCCC3)ccc2Cl)c1,–,inactive: -34%
Cc1cccc(N(CC(=O)NCc2ccco2)C(=O)CCC(=O)Nc2ccccn2)c1,–,38.3%
Cc1ccc(C2CC(c3cccc(Br)c3)Nc3nnnn32)cc1 (stereo unspecified),–,32.8%
CC(=O)Nc1ccc2oc(C)nc2c1,–,33.4%
Cc1ccc2c(COC(=O)c3n[nH]c4ccccc34)cc(=O)oc2c1,–,63.5%
COc1ccc(/C=N/N2CCN(C3c4ccccc4-c4ccccc43)CC2)cc1OC,–,27.4%
CCOc1ccccc1C(=O)Nc1nnc(COC)s1,–,17.3%
COC(=O)c1ccc(NC(=O)NC2CCCCC2)cc1,active: 12.6 µM,–
COc1ccc(S(=O)(=O)CCC(=O)N2CCN(c3ccc(F)cc3)CC2)cc1,–,-53.6%
Cc1nc(Nc2ccc(C(=O)O)cc2)sc1-c1ccccc1,–,-60.4%
COc1ccc(CCNc2ncnc3[nH]ncc23)cc1OC,–,-51.3%
CCOC(=O)CCNC(C(=O)OCC)c1ccccc1 (stereo unspecified),–,31.7%

SMILES,Potency,"activity change, positive = activation"
N#CCCN(CC(=O)O)S(=O)(=O)c1ccccc1,–,53.3%
O=S(=O)(Nc1ccccc1Cl)c1ccc(F)cc1,–,49.2%
Fc1ccc(CSc2nc3ccccc3[nH]2)cc1,active: 11.2 µM,–
CC(C)Cn1c(-c2ccc(Br)o2)n[nH]c1=S,–,inactive: -7.91%
O=C(c1ccc(Cl)s1)N1CCN(c2nc3ccccc3s2)CC1,–,inactive: -34.8%
COc1cc(OC)c(C2=NOC(C(=O)NCc3ccc4c(c3)OCO4)C2)cc1Cl (stereo unspecified),–,34.5%
CC(=O)Nc1ccc(Nc2ccc(N3C(=O)CCCC3=O)cc2[N+](=O)[O-])cc1,–,-2.75%
COC(=O)c1ccc(N2C(=O)CC(SCCN)C2=O)cc1 (stereo unspecified),active: 11.2 µM,–
Cc1nc(-c2c(-c3ccc(O)cc3O)noc2C(F)(F)F)cs1,–,38.9%
CC(C)(C)C(=O)Nc1cc2nn(-c3ccccc3)nc2cc1Cl,–,inactive: -95.5%
CCn1c(Cc2ccccc2)nnc1SCC(=O)Nc1nnc(-c2ccccc2)s1,active: 0.112 µM,–
Cc1nc2nc(-c3ccccc3)cn2nc1C,active: 8.91 µM,–
O=C(Nc1ccc(-c2nnc3n2CCCCC3)cc1)c1cc2ccccc2o1,–,inactive: -2.06%
Cc1ccc(CC(=O)NCC(C)C)cc1,–,27.1%
COC(=O)c1cc(C(=O)OC)cc(N2C(=O)CN=C2Nc2nc(C)cc(C)n2)c1,–,66.1%
CN(C)c1ccc(-n2cccc2/C=C/[N+](=O)[O-])cc1,–,inactive: -40.9%
COc1cc2ncc(S(=O)(=O)c3ccccc3)c(N3CCC4(CC3)OCCO4)c2cc1OC,–,36.1%
CC1CCc2noc(NC(=O)c3ccc([N+](=O)[O-])cc3)c2C1 (stereo unspecified),–,41.1%
CCOc1ccc2oc(-c3ccccc3)c(C(=O)N3CCN(C)CC3)c2c1,–,37.4%

# Gathered by group, the compounds so far with two or more sulfur atoms
SMILES,Potency,"activity change, positive = activation"
O=C(c1ccc(Cl)s1)N1CCN(c2nc3ccccc3s2)CC1,–,inactive: -34.8%
CCn1c(Cc2ccccc2)nnc1SCC(=O)Nc1nnc(-c2ccccc2)s1,active: 0.112 µM,–

# Next part:

SMILES,Potency,"activity change, positive = activation"
O=C(CSc1ncccn1)c1ccccc1Br,active: 12.6 µM,–
COc1ccc(C(=O)NCc2nnc(SCC(=O)NO)n2Cc2ccccc2)cc1,–,-23.3%
O=C(c1cccc(S(=O)(=O)N2CCc3ccccc3C2)c1)N1CCN(c2ccc(O)cc2)CC1,–,inactive: -37%
Cc1cc(C)nc(Nc2nc3ccccc3[nH]2)n1,active: 12.6 µM,–
O=C(/C=C\Nc1ccc(Br)cc1)c1cccnc1,–,243%
CCCNC(=O)CN(c1ccc(F)c(Cl)c1)S(C)(=O)=O,–,31.2%
Cc1cc(C)cc(Oc2ccc(N)cc2)c1,active: 12.6 µM,–
N#CCSCC(=O)Nc1ccc(Br)cc1,–,33.6%
CCOc1ccccc1Nc1nnc(SCC(=O)Nc2cccc(S(=O)(=O)NC3=NCCCCC3)c2)s1,–,inactive: -42.6%
O=C(CCCOc1ccc(Cl)cc1Cl)N/N=C/c1ccccc1O,–,inactive: -82%
O=C(Nc1cc(N2CCOCC2)ncn1)NC1(C(F)(F)F)Oc2ccc(Cl)cc2O1 (stereo unspecified),active: 20 µM,–
COc1ccc(/C=C/C(=O)c2ccccc2O)cc1,–,40.9%
CCN(CCCNC(=O)C1CCN(S(=O)(=O)CC)CC1)c1ccccc1,–,39.9%
CCOC(=S)SCc1cn2ccc(C)cc2n1,–,inactive: -31.4%
CN(Cc1nc2ccccc2n1C)S(=O)(=O)c1ccc(Cl)cc1,–,44.6%
CCC(=O)Nc1cccc(C(=O)/C=C/c2cccs2)c1,–,inactive: -63.5%
CC(=O)Nc1ccc(/C=N/NC(=O)c2cccs2)cc1,active: 17.8 µM,–
CCOc1ccccc1NC(=O)CSc1nnc(-c2ccccc2Cl)n1Cc1ccco1,–,37.7%
